No constants are given. Whether binding was seen depends on the method and setting. Binding seen in cells or lysates may run through a third protein. These calls come from enrichment with a bait or labelling near it, and not all partners need be listed.

Chains of the proteins cited; added tags and fusions are not shown.
UniProt Q9CWH6: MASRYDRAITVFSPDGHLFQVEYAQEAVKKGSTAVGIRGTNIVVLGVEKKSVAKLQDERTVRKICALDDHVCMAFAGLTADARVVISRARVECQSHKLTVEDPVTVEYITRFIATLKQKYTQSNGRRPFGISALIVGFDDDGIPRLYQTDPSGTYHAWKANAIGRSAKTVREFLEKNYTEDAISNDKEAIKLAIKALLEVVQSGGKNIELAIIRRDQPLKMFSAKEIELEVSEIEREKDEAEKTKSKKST

The target of the test is PSMA8 (testis-specific α4s subunit of the spermatoproteasome) (mouse (endogenous in testis)) (UniProt Q9CWH6). Description: affinity purification with mass spectrometry.

B1: CAND1 (protein, UniProt Q6ZQ38 1-1230)
chain: MASASYHISNLLEKMTSSDKDFRFMATNDLMTELQKDSIKLDDDSERKVVKMILRLLEDKNGEVQNLAVKCLGPLVSKVKEYQVETIVDTLCTNMLSDKEQLRDISSIGLKTVIGELPPASSGSALAANVCKKITGRLTSAIAKQEDVSVQLEALDIMADMLSRQGGLLVNFHPSILTCLLPQLTSPRLAVRKRTIIALGHLVMSCGNIVFVDLIEHLLSELSKNDSMSTTRTYIQCIAAISRQAGHRIGEYLEKIIPLVVKFCNVDDDELREYCIQAFESFVRRCPKEVYPHVSTIINICLKYLTYDPNYNYDDEDEDENAMDADGGDDDDQGSDDEYSDDDDMSWKVRRAAAKCLDAVVSTRHEMLPEFYKTVSPALIARFKEREENVKADVFHAYLSLLKQTRPVQSWLCDPDAMEQGDTPLTMLQSQVPNIVKALHKQMKEKSVKTRQCCFNMLTELVNVLPGALTQHIPVLVPGIIFSLNDKSSSSNLKIDALSCLYVILCNHSPQVFHPHVQALVPPVVACVGDPFYKITSEALLVTQQLVKVIRPLDQPSSFDATPYIKDLFTCTIKRLKAADIDQEVKERAISCMGQIICNLGDNLGPDLSNTLQIFLERLKNEITRLTTVKALTLIAGSPLKIDLRPVLGEGVPILASFLRKNQRALKLGTLSALDILIKNYSDSLTAAMIDAVLDELPPLISESDMHVSQMAISFLTTLAKVYPSSLSKISGSILNELIGLVRSPLLQGGALSAMLDFFQALVVTGTNNLGYMDLLRMLTGPVYSQSTALTHKQSYYSIAKCVAALTRACPKEGPAVVGQFIQDVKNSRSTDSIRLLALLSLGEVGHHIDLSGQLELKSVILEAFSSPSEEVKSAASYALGSISVGNLPEYLPFVLQEITSQPKRQYLLLHSLKEIISSASVAGLKPYVENIWALLLKHCECAEEGTRNVVAECLGKLTLIDPETLLPRLKGYLISGSSYARSSVVTAVKFTISDHPQPIDPLLKNCIGDFLKTLEDPDLNVRRVALVTFNSAAHNKPSLIRDLLDSVLPHLYNETKVRKELIREVEMGPFKHTVDDGLDIRKAAFECMYTLLDSCLDRLDIFEFLNHVEDGLKDHYDIKMLTFLMLVRLSTLCPSAVLQRLDRLVEPLRATCTTKVKANSVKQEFEKQDELKRSAMRAVAALLTIPEAEKSPLMSEFQSQISSNPELAAIFESIQKDSSSTNLESMDTS
Regarding B1, the binding entry is given as “binds”.

(Values after doi:10.1101/384354.)
